Experimental data published in the supplement of paper PMC12889115.
This is one part of the list. These are raw signals, not scaled to a control.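 In the initial screen, polymyxin B was used at a concentration that permeabilizes Salmonella's outer membrane but not its inner membrane. Maximum growth was set by DMSO wells with or without polymyxin B. Since plates varied, data were ranked per plate, and compounds giving the lowest OD600 advanced as hits.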

System: Salmonella enterica serovar Typhimurium SL1344
Test: bacterial growth OD600 after 18 h with compound and polymyxin B; higher = more bacterial growth (less inhibition)
Details: 50 µM, Mueller-Hinton broth

Structure (SMILES)	bacterial growth OD600 (polymyxin B 0.75 µg/mL)	bacterial growth OD600 (polymyxin B 1 µg/mL)
O=C1NCCCC[C@@H]1Nc1ccc(-c2nc(-c3cccc(Cl)c3)no2)cn1	0.007	
CCOC(=O)N1CCN(C(=O)c2ccc(N3CCC(NCC(C)C)CC3)cc2)CC1	0.846	
CCN1CCN(C2(C(=O)N(C)CCc3c(C)n[nH]c3C)Cc3ccccc3C2)CC1	0.919	
Cc1nnc(CCC(=O)NCc2cccnc2Oc2ccc(F)c(F)c2)[nH]1	0.781	
C=CCN(CC=C)C(=O)C1CC(=O)c2sc(NC(=O)C3CCC3)nc2C1 (configuration not stated)	0.827	
Cc1cnc(C)c(-c2ccc3c(c2)CC(CNC(=O)CCC2CCCCC2)O3)n1 (configuration not stated)	0.814	
O=C(Cc1ccc(N2CCC(NCCCc3ccncc3)CC2)cc1)NCCc1cccc(F)c1	0.764	
Cc1cc(C)n(Cc2cc(C(=O)N(C)C(C)c3cccs3)n[nH]2)n1 (configuration not stated)		1.02
CCOc1ccc2nc(N3CCCC(C(=O)N4CCC(C(=O)N5CCOCC5)CC4)C3)nc(C)c2c1 (configuration not stated)	0.755	
COc1ccc(C2CCN(Cc3ccoc3)c3ccccc3S2)cc1C (configuration not stated)	0.559	
O=C(CCn1cccn1)NCc1cccnc1Oc1ccccc1F		1.02
CSCCC(=O)N1CCC(C2(c3cccnc3)NC(=O)N(CCc3cccs3)C2=O)CC1 (configuration not stated)	0.881	
CCC(NC(=O)CCc1nnc(Cc2cc(OC)ccc2OC)o1)c1ccncc1 (configuration not stated)		0.884
Cc1cccc(C(=O)N2CCCC(Nc3ccc(C(C)C)cc3)C2)n1 (configuration not stated)		0.666
CC(=O)N(Cc1cccnc1)CC1CCN(Cc2ccccc2C)CC1		1.09
CC(C)N1CCC(N2CCC(C(=O)NCc3cccnc3)CC2)CC1	0.774	

One compound at a time (already shown):
CCOC(=O)N1CCN(C(=O)c2ccc(N3CCC(NCC(C)C)CC3)cc2)CC1 is listed with bacterial growth OD600 (polymyxin B 0.75 µg/mL): 0.846
Cc1cccc(C(=O)N2CCCC(Nc3ccc(C(C)C)cc3)C2)n1 (configuration not stated) is listed with bacterial growth OD600 (polymyxin B 1 µg/mL): 0.666

Further entries follow:

Structure (SMILES)	bacterial growth OD600 (polymyxin B 0.75 µg/mL)	bacterial growth OD600 (polymyxin B 1 µg/mL)
CC(C)(C)CNCC1(O)CCCN(Cc2ccccc2F)C1=O (configuration not stated)		0.967
COC(=O)C1CCN(C(=O)CC2(c3ccc(-c4ccccc4)cc3)CC(=O)N(C)C2=O)CC1 (configuration not stated)	0.72	
CCc1ccc2nc(C)cc(C(=O)N3CCC(CCC(=O)NC4CC4)CC3)c2c1		1.02
CCc1ccc(CN2Cc3ccccc3OC(C)C2)o1 (configuration not stated)	0.689	
Cc1cc(C)cc(C(=O)N2CCC(C3(Cc4ccc(F)cc4)NC(=O)N(C4CCOC4)C3=O)CC2)c1 (configuration not stated)	0.671	
O=C(c1cn(Cc2ccc(Cl)cc2)nn1)N1CCCC(OCc2cccnc2)C1 (configuration not stated)		0.864
O=C(NCc1cccnc1)c1ccc2oc(-c3cccc(F)c3)nc2c1		0.712
CCOc1ccc2nc(N3CCCC(C(=O)N4CCN(C(=O)c5cccs5)CC4)C3)nc(C)c2c1 (configuration not stated)	0.808	
COc1cc(CC2(CCC(=O)N3CCN(C(=O)c4cccs4)CC3)CCC(=O)N2)ccc1F (configuration not stated)	0.995	
COC(c1ccc2c(c1)CN(C(=O)C1Cc3ccccc3O1)CCO2)C1CCCCC1 (configuration not stated)	0.002	
CC1CN(Cc2ccsc2)Cc2cc(Cl)ccc2O1 (configuration not stated)	0.007	
O=C1CC(NC2CCSCC2)CN1CCCc1ccccc1 (configuration not stated)		0.877
CSCCNC(=O)Cc1c2c(n(Cc3ccccc3)c1C)CCCC2=O		1.14
O=C(CN1CCCCC1)N1CCc2[nH]nc(-c3cccc(F)c3)c2C1	0.764	
COc1ccc(CCN2C(=O)O[C@@H]3CN(Cc4cnn(C)c4)C[C@@H]32)cc1	0.864	
OCCC1CN(Cc2cc(F)ccc2F)CCN1C1CCCCC1 (configuration not stated)		0.921
